Where two headings read alike, the source gives them in different places. No constants are given. Whether binding was seen depends on the method and setting. In cells and extracts the contact can be indirect. Some binding calls cover weakened binding; strength is not graded here. For some of these results: Tags and fused reporters may be left off the sequences shown.

Sequences of proteins named here, by UniProt entry; tags and fusion partners are left off. A change or cut given only in a name is not applied to a line headed by its entry.
UniProt Q96524, whole entry: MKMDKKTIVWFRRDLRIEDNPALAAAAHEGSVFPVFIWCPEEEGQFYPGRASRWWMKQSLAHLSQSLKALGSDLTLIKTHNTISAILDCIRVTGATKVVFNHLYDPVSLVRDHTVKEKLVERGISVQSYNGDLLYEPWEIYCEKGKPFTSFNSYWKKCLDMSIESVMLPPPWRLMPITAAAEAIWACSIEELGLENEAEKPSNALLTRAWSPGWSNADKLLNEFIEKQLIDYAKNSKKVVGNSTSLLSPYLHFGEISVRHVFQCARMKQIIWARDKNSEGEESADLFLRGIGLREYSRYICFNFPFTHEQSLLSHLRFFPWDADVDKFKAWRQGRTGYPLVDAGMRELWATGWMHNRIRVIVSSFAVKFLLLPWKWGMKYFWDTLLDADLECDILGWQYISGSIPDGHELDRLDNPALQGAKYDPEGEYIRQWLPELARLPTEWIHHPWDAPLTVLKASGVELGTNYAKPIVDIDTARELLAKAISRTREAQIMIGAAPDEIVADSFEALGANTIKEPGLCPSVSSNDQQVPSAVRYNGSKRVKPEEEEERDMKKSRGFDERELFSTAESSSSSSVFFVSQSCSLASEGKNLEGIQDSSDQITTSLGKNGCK

In assay [1] the target is Flash-CRY2 (UBQ10pro::Flash-CRY2) expressed in N. benthamiana (Arabidopsis thaliana) (UniProt Q96524). The assay can be described thus: co-IP.
The target is the same in assay [2]. The assay can be described thus: co-IP. The source holds these as a separate data set.
The target in assay [3] is T1, COP1-6xHis-3xFlag (Arabidopsis thaliana) (UniProt P43254).
T1 sequence: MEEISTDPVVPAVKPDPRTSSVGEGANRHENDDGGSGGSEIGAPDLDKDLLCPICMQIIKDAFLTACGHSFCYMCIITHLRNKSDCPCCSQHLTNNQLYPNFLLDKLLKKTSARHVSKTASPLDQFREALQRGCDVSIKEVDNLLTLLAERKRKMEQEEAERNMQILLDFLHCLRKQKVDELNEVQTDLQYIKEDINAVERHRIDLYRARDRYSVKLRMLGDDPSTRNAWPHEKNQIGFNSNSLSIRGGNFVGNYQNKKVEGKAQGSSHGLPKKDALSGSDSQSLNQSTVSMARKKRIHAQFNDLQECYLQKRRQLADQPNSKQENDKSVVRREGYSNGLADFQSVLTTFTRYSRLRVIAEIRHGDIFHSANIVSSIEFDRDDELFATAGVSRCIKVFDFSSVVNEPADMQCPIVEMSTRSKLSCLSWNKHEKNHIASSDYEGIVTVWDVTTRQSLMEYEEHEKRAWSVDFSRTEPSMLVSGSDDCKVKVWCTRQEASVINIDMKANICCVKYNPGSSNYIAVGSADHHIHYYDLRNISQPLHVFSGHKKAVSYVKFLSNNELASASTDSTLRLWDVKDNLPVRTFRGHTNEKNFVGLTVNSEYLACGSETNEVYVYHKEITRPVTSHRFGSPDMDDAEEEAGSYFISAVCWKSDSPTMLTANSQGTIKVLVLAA
The assay can be described thus: co-IP.

The target of assay [4] is nVenus-CRY2 (Arabidopsis thaliana) (UniProt Q96524). Nature of the assay: split reporter.
Assay [5] deals with T2, COP1-nVenus (Arabidopsis thaliana) (UniProt P43254).
T2 sequence: T1 sequence
Nature of the assay: split reporter.

The target of assay [6] is 9×Myc-6×His-3×Flag-CRY2 (Arabidopsis thaliana) (UniProt Q96524). The assay can be described thus: co-IP.

With “UBP13ΔMATH-6xHA (from UniProt Q84WU2 179-1115) (domain or fragment)”, the binding entry in assay [1] is “no binding”.

B1: UBP13-6xHA expressed in N. benthamiana (enzyme, UniProt Q84WU2 1-1115)
chain: MTMMTPPPLDQQEDEEMLVPNPDLVEGPQPMEVAQTDPAATAVENPPPEDPPSLKFTWTIPMFTRLNTRKHYSDVFVVGGYKWRILIFPKGNNVDHLSMYLDVADAANLPYGWSRYSQFSLAVVNQVNNRYSIRKETQHQFNARESDWGFTSFMPLSELYEPTRGYLVNDTVLIEAEVAVRKVLDYWSYDSKKETGFVGLKNQGATCYMNSLLQTLYHIPYFRKAVYHMPTTENDAPTASIPLALQSLFYKLQYNDTSVATKELTKSFGWDTYDSFMQHDVQELNRVLCEKLEDKMKGTVVEGTIQKLFEGHHMNYIECINVDYKSTRKESFYDLQLDVKGCKDVYASFDKYVEVERLEGDNKYHAEGHDLQDAKKGVLFIDFPPVLQLQLKRFEYDFMRDTMVKINDRYEFPLQLDLDREDGRYLSPDADKSVRNLYTLHSVLVHSGGVHGGHYYAFIRPTLSDQWYKFDDERVTKEDVKRALEEQYGGEEELPQNNPGFNNPPFKFTKYSNAYMLVYIRESDKDKIICNVDEKDIAEHLRVRLKKEQEEKEDKRKYKAQAHLFTTIKVARDDDITEQIGKNIYFDLVDHEKVRSFRIQKQTPFQQFKEEVAKEFGVPVQLQRFWIWAKRQNHTYRPNRPLSPNEELQTVGQIREASNKANNAELKLFLEIERGPDDLPIPPPEKTSEDILLFFKLYDPENAVLRYVGRLMVKSSSKPMDIVGQLNKMAGFAPDEEIELFEEIKFEPCVMCEQIDKKTSFRLCQIEDGDIICYQKPLSIEESEFRYPDVPSFLEYVQNRELVRFRTLEKPKEDEFTMELSKLHTYDDVVERVAEKLGLDDPSKLRLTSHNCYSQQPKPQPIKYRGVDHLSDMLVHYNQTSDILYYEVLDIPLPELQGLKTLKVAFHSATKDEVIIHNIRLPKQSTVGDVINELKTKVELSHQDAELRLLEVFFHKIYKIFPSTERIENINDQYWTLRAEEIPEEEKNIGPNDRLIHVYHFTKEAGQNQQVQNFGEPFFLVIHEGETLEEIKTRIQKKLHVPDEDFAKWKFASFSMGRPDYLLDTDVVYNRFQRRDVYGAWEQYLGLEHIDNAPKRAYAANQNRHAYEKPVKIYN
Consider B1, for which the binding result in assay [2] and in assay [3] was “binds” each time.

B2: UBP13-cVenus (enzyme, UniProt Q84WU2 1-1115)
chain: B1 chain
As to B2, the binding entry in assay [4] and in assay [5] was “binds” each time.

B3: UBP13-HA in Arabidopsis transgenic seedlings (enzyme, UniProt Q84WU2 1-1115)
chain: B1 chain
On to B3, for which, in assay [6], the binding result is recorded as “binds”.

B4: UBP13ΔMATH-6xHA (domain or fragment, UniProt Q84WU2 179-1115)
chain: AVRKVLDYWSYDSKKETGFVGLKNQGATCYMNSLLQTLYHIPYFRKAVYHMPTTENDAPTASIPLALQSLFYKLQYNDTSVATKELTKSFGWDTYDSFMQHDVQELNRVLCEKLEDKMKGTVVEGTIQKLFEGHHMNYIECINVDYKSTRKESFYDLQLDVKGCKDVYASFDKYVEVERLEGDNKYHAEGHDLQDAKKGVLFIDFPPVLQLQLKRFEYDFMRDTMVKINDRYEFPLQLDLDREDGRYLSPDADKSVRNLYTLHSVLVHSGGVHGGHYYAFIRPTLSDQWYKFDDERVTKEDVKRALEEQYGGEEELPQNNPGFNNPPFKFTKYSNAYMLVYIRESDKDKIICNVDEKDIAEHLRVRLKKEQEEKEDKRKYKAQAHLFTTIKVARDDDITEQIGKNIYFDLVDHEKVRSFRIQKQTPFQQFKEEVAKEFGVPVQLQRFWIWAKRQNHTYRPNRPLSPNEELQTVGQIREASNKANNAELKLFLEIERGPDDLPIPPPEKTSEDILLFFKLYDPENAVLRYVGRLMVKSSSKPMDIVGQLNKMAGFAPDEEIELFEEIKFEPCVMCEQIDKKTSFRLCQIEDGDIICYQKPLSIEESEFRYPDVPSFLEYVQNRELVRFRTLEKPKEDEFTMELSKLHTYDDVVERVAEKLGLDDPSKLRLTSHNCYSQQPKPQPIKYRGVDHLSDMLVHYNQTSDILYYEVLDIPLPELQGLKTLKVAFHSATKDEVIIHNIRLPKQSTVGDVINELKTKVELSHQDAELRLLEVFFHKIYKIFPSTERIENINDQYWTLRAEEIPEEEKNIGPNDRLIHVYHFTKEAGQNQQVQNFGEPFFLVIHEGETLEEIKTRIQKKLHVPDEDFAKWKFASFSMGRPDYLLDTDVVYNRFQRRDVYGAWEQYLGLEHIDNAPKRAYAANQNRHAYEKPVKIYN
For B4, the binding entry in assay [3] was “binds”.

These data come from doi:10.1101/2021.04.29.441934.
